Test results from PMC9298768.
Results are given in words; binding and its absence hold for the method and conditions named. Binding seen in cells or lysates may run through a third protein. Some results given as binding are weak or reduced against the parent protein; the word gives no strength. Where a sequence is shown, tags or fusion partners need not be part of it. One block for each molecule: values may come before it.

Chains of the proteins cited; added tags and fusions are not shown.
UniProt P02828: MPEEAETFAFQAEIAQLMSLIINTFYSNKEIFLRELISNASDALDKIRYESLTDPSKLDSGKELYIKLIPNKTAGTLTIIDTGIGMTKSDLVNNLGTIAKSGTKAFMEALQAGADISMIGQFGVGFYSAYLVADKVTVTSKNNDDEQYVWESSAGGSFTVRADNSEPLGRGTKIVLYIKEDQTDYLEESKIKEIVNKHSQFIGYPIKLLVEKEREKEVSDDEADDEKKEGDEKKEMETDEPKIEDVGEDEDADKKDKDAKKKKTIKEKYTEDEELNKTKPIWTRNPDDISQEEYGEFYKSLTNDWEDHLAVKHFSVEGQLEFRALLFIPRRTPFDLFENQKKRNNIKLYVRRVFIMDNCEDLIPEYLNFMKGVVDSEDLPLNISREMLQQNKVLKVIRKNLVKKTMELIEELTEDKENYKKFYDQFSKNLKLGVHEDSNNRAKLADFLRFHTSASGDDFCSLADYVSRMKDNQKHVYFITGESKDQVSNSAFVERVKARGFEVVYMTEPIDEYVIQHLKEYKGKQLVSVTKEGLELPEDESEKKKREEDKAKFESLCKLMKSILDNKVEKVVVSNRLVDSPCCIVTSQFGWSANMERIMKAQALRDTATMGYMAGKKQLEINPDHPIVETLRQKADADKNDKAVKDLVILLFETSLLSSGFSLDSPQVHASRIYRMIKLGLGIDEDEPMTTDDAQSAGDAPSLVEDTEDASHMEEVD
UniProt Q9V3K3: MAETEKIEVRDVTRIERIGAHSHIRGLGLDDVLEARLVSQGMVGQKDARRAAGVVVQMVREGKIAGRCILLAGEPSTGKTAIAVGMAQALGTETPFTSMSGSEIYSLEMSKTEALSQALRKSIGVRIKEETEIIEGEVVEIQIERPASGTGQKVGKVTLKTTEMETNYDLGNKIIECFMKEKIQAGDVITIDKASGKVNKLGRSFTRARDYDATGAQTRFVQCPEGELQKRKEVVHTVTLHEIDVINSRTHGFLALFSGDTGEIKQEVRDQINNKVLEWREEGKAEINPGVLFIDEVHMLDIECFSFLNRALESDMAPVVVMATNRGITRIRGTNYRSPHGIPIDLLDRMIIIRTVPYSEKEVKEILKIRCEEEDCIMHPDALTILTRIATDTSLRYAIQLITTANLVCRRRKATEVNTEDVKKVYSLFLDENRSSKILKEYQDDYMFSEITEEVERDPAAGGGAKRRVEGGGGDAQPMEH
UniProt Q9VH07: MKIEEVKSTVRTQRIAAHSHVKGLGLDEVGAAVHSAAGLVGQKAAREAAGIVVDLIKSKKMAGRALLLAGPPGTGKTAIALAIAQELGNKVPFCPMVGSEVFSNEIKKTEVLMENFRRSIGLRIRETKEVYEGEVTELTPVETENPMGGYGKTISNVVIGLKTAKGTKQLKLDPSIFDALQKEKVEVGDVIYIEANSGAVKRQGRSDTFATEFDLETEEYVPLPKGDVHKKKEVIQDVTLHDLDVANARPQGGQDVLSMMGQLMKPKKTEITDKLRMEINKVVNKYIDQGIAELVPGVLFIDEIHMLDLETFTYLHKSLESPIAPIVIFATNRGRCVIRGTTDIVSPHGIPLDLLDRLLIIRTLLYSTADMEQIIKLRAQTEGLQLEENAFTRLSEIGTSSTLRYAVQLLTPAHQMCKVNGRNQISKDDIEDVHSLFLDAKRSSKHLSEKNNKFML

What was measured:
[1] = biological target: T1, mouse Dnaaf6, FLAG-tagged (mouse) (UniProt Q3KNI6); experiment: co-IP; FLAG-tagged bait and HA-tagged prey expressed in S2 cells, harvested after 48-72 h; FLAG Immunoprecipitation kit; Western blot with anti-FLAG and anti-HA together
T1 sequence: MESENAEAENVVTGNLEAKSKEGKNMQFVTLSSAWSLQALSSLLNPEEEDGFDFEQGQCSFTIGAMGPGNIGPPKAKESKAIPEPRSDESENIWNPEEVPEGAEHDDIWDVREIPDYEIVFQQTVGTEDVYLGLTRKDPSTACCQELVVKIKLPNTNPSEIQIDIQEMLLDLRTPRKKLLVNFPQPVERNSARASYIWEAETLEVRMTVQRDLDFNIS

[2] = biological target: Drosophila Hsp90, FLAG-tagged (Drosophila melanogaster) (UniProt P02828); experiment: as above

Molecule: Drosophila Reptin, HA-tagged (from UniProt Q9V3K3 1-481)
binding [1]: binds

B1: mouse Dnaaf4, HA-tagged (protein, UniProt Q8R368 1-420)
chain: MPVRVSEFSWQQTPATIFLSLPLRGVCVRDADVFCGESYLKVNFPPFLFELFLYAPIDDGKSKAKIGNDTILFTLYKKEPVLWDSLSVPGVDKEMMQRIREKSILQAQEKAKEATEAKAVAKREDQRYALGEMMKIEEEERKKIEDMKENERKKATSELEAWKECQKKADGQKRVQRKEKPLEGKQAEETKALKPRGLPRKAPPTRLPTRGRNWENIFPEKLKEDRVPAPRSAGSIQISFTPRVFPTALRESQVAEEEEWLHKQAEARRAMSTDLPEFFDLKEEERNPDWLKDKGNKLFATENYLAAVDAYNLAIRLNCKIPLLYLNRAACHLKLKNLHKAIEDSSKALELLTPPVADNANARMKAHVRRGTAFCQLELYVEGLQDYEAALKIDPANTVVQNDAEKIRNIIQGTALKSRD
binding [2]: binds
binding [1]: binds

Continued, values first:

binding [1]: binds
Molecule: Drosophila Hsp90, HA-tagged (from UniProt P02828 1-717)

binding [1]: binds
Molecule: Drosophila Pontin, HA-tagged (from UniProt Q9VH07 1-456)
